The values that follow come from the supplement of paper PMC8728848.

Common to all, as to experiment: glycan array binding signal (z-score within array); higher = stronger binding
Holding throughout (conditions): glycan notation: IUPAC condensed, linker removed

In assay [1] the target is Gal(b1-4)GlcNAc(b1-2)Man(a1-3)[Gal(b1-4)GlcNAc(b1-2)Man(a1-6)]Man(b1-4)GlcNAc(b1-4)GlcNAc. The method, boiled down: (§1)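 Columns mapping to the same glycan were averaged after glycan names were converted to IUPAC-condensed notation. The data come from 3228 arrays in the Consortium for Functional Glycomics database, limited to those with an available protein sequence. Binding is reported as a within-array Z-score averaged across arrays of one protein sequence and across linkers.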

For assay [2], the target named is Gal(b1-4)GlcNAc(b1-2)Man(a1-3)[Gal(b1-4)GlcNAc(b1-2)Man(a1-6)]Man(b1-4)GlcNAc(b1-4)[Fuc(a1-6)]GlcNAc. The method, boiled down: as §1
Assay [3] addresses Gal(b1-4)GlcNAc(b1-2)Man(a1-3)[Gal(b1-4)GlcNAc(b1-2)Man(a1-6)][Gal(b1-4)GlcNAc(b1-4)]Man(b1-4)GlcNAc(b1-4)[Fuc(a1-6)]GlcNAc. The method, boiled down:
as §1

In assay [4] the target is Gal(b1-4)GlcNAc(b1-2)Man(a1-3)[Gal(b1-4)GlcNAc(b1-2)Man(a1-6)][GlcNAc(b1-4)]Man(b1-4)GlcNAc(b1-4)[Fuc(a1-6)]GlcNAc. Summed up:
as §1

Assay [5] has as its target Gal(b1-4)GlcNAc(b1-2)Man(a1-3)[GlcNAc(b1-2)Man(a1-6)]Man(b1-4)GlcNAc(b1-4)GlcNAc. Summed up: as §1
Assay [6] deals with Gal(b1-4)GlcNAc(b1-2)Man(a1-3)[GlcNAc(b1-4)][Gal(b1-4)GlcNAc(b1-2)Man(a1-6)]Man(b1-4)GlcNAc(b1-4)GlcNAc. Summed up: as §1
The target of assay [7] is Gal(b1-4)GlcNAc(b1-2)Man(a1-3)[Man(a1-6)]Man(b1-4)GlcNAc(b1-4)GlcNAc. Summed up:
as §1

Assay [8] concerns the target Gal(b1-4)GlcNAc(b1-2)Man(a1-6)Man(b1-4)GlcNAc(b1-4)GlcNAc. Summed up:
as §1

Assay [9] concerns the target Gal(b1-4)GlcNAc(b1-2)Man(a1-6)[GlcNAc(b1-2)Man(a1-3)]Man(b1-4)GlcNAc(b1-4)GlcNAc. The method, boiled down: as §1
Assay [10] has as its target Gal(b1-4)GlcNAc(b1-2)Man(a1-6)[Man(a1-3)]Man(b1-4)GlcNAc(b1-4)GlcNAc. The method, boiled down:
as §1

Assay [11] has as its target Gal(b1-4)GlcNAc(b1-2)[Gal(b1-4)GlcNAc(b1-4)]Man(a1-3)[Gal(b1-4)GlcNAc(b1-2)Man(a1-6)]Man(b1-4)GlcNAc(b1-4)GlcNAc. The method, boiled down: as §1
The target in assay [12] is Gal(b1-4)GlcNAc(b1-2)[Gal(b1-4)GlcNAc(b1-4)]Man(a1-3)[Gal(b1-4)GlcNAc(b1-2)[Gal(b1-4)GlcNAc(b1-6)]Man(a1-6)]Man(b1-4)GlcNAc(b1-4)GlcNAc. The method, boiled down:
as §1

Assay [13] deals with Gal(b1-4)GlcNAc(b1-2)[Gal(b1-4)GlcNAc(b1-4)]Man(a1-3)[GlcNAc(b1-4)][Gal(b1-4)GlcNAc(b1-2)Man(a1-6)]Man(b1-4)GlcNAc(b1-4)GlcNAc. The method, boiled down: as §1
The target of assay [14] is Gal(b1-4)GlcNAc(b1-2)[Gal(b1-4)GlcNAc(b1-4)]Man(a1-3)[GlcNAc(b1-4)][Gal(b1-4)GlcNAc(b1-2)[Gal(b1-4)GlcNAc(b1-6)]Man(a1-6)]Man(b1-4)GlcNAc(b1-4)GlcNAc. The method, boiled down: as §1
The target in assay [15] is Gal(b1-4)GlcNAc(b1-2)[Gal(b1-4)GlcNAc(b1-6)]Man(a1-6)[Gal(b1-4)GlcNAc(b1-2)Man(a1-3)]Man(b1-4)GlcNAc(b1-4)GlcNAc. Summed up:
as §1

In assay [16] the target is Gal(b1-4)GlcNAc(b1-2)[Gal(b1-4)GlcNAc(b1-6)]Man(a1-6)[Gal(b1-4)GlcNAc(b1-2)Man(a1-3)]Man(b1-4)GlcNAc(b1-4)[Fuc(a1-6)]GlcNAc. The method, boiled down:
as §1

Assay [17] concerns the target Gal(b1-4)GlcNAc(b1-2)[Gal(b1-4)GlcNAc(b1-6)]Man(a1-6)[GlcNAc(b1-4)][Gal(b1-4)GlcNAc(b1-2)Man(a1-3)]Man(b1-4)GlcNAc(b1-4)GlcNAc. Summed up: as §1
Assay [18] addresses Gal(b1-4)GlcNAc(b1-2)[Gal(b1-4)GlcNAc(b1-6)]Man(a1-6)[GlcNAc(b1-4)][Gal(b1-4)GlcNAc(b1-2)[Gal(b1-4)GlcNAc(b1-4)]Man(a1-3)]Man(b1-4)GlcNAc(b1-4)[Fuc(a1-6)]GlcNAc. Summed up:
as §1

Assay [19] deals with Gal(b1-4)GlcNAc(b1-3)Gal(b1-3)GalNAc. Summed up:
as §1

The other results are listed elsewhere or left out.

B1: SabA (Helicobacter pylori) (protein)
chain: MGSSHHHHHHSSGLVPRGSHMENLYFQGEDNGFFVSAGYQIGEAVQMVKNTGELKNLNEKYEQLSQYLNQVASLKQSIQNANNIELVNSSLNYLKSFTNNNYNSTTQSPIFNAVQAVITSVLGFWSLYAGNYFTFFVGKKVGDSGQPASVQGNPPFKTIIENCSGIENCAMDQTTYDKMKKLAEDLQAAQTNSATKGNNLCALSGCAATDSTSNPPNSTVSNALNLAQQLMDLIANTKTAMMWKNIVISGVSNTSGAITSTNYPTQYAVFNNIKAMIPILQQAVTLSQSNHTLSASLQAQATGSQTNPKFAKDIYTFAQNQKQVISYAQDIFNLFNSIPAEQYKYLEKAYLKIPNAGSTPTNPYRQVVNLNQEVQTIKNNVSYYGNRVDAALSVARDVYNLKSNQAEIVTAYNDAKTLSEEISKLPHNQVNTKDIVTLPYDKNAPAAGQSNYQINPEQQSNLNQALAAMSNNPFKKVGMISSQNNNGA
B1: the “glycan array binding signal (z-score)” value in assay [1] is -0.841; in assay [2] it was 0.14; in assay [3] it was -0.303; in assay [4], -0.006; in assay [5], -0.326; in assay [6] it was -0.111. Further, the “glycan array binding signal (z-score)” value in assay [7] was 0.02; in [8] it was -0.143; in assay [9], -0.599; in assay [10], -0.978; in assay [11], -0.666; in assay [12] it was -0.781. The “glycan array binding signal (z-score)” value in assay [13] was -0.759; in [14], 0.061; in [15], 0.291; in assay [16] it was 0.877; in assay [17], -0.559; in [18], -0.441. Moreover, the “glycan array binding signal (z-score)” value in [19] was -0.364.
